The text below walks through data of the supplement of paper PMC12067093, “Discovery and optimisation of a covalent ligand for TRIM25 and its application to targeted protein ubiquitination” (Chemical Science, 2025).

Protein sequences, listed by entry. Tags and fused reporters are not part of them. Lines headed by an entry give the natural chain unless they say otherwise; changes in a name come on top.
UniProt P17813: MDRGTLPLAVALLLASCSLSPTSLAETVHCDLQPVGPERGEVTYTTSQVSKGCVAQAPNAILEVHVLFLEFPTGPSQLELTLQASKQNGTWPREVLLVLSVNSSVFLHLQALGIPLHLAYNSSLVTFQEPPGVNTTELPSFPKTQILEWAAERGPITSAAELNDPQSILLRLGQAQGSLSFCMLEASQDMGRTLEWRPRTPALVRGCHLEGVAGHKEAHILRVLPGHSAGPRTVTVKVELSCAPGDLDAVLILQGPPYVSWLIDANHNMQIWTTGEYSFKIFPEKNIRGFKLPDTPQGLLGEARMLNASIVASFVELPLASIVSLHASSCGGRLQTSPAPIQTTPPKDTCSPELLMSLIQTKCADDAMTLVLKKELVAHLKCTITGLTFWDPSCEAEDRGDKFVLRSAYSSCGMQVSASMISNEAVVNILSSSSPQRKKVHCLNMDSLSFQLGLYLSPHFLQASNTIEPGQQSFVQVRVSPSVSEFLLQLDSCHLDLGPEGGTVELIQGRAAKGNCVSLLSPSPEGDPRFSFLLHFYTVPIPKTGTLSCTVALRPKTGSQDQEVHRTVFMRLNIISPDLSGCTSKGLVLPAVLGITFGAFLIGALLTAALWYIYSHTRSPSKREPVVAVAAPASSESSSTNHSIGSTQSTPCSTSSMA
UniProt P55010, whole entry, looked up: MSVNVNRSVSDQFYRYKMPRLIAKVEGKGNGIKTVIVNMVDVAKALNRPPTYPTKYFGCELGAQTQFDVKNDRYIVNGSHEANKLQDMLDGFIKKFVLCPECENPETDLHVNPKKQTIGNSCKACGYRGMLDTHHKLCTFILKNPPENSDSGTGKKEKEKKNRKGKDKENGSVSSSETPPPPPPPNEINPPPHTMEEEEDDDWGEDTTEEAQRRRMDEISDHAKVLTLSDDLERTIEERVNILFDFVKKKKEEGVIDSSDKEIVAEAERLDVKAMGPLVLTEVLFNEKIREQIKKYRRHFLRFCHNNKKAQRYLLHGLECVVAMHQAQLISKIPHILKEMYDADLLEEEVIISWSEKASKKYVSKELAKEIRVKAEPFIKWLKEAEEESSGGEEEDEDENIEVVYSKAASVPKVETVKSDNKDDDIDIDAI
UniProt Q13541: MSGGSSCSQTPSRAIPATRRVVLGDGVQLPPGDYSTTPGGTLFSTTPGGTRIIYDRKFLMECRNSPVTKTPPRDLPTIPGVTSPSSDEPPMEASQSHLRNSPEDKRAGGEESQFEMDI
UniProt P07814: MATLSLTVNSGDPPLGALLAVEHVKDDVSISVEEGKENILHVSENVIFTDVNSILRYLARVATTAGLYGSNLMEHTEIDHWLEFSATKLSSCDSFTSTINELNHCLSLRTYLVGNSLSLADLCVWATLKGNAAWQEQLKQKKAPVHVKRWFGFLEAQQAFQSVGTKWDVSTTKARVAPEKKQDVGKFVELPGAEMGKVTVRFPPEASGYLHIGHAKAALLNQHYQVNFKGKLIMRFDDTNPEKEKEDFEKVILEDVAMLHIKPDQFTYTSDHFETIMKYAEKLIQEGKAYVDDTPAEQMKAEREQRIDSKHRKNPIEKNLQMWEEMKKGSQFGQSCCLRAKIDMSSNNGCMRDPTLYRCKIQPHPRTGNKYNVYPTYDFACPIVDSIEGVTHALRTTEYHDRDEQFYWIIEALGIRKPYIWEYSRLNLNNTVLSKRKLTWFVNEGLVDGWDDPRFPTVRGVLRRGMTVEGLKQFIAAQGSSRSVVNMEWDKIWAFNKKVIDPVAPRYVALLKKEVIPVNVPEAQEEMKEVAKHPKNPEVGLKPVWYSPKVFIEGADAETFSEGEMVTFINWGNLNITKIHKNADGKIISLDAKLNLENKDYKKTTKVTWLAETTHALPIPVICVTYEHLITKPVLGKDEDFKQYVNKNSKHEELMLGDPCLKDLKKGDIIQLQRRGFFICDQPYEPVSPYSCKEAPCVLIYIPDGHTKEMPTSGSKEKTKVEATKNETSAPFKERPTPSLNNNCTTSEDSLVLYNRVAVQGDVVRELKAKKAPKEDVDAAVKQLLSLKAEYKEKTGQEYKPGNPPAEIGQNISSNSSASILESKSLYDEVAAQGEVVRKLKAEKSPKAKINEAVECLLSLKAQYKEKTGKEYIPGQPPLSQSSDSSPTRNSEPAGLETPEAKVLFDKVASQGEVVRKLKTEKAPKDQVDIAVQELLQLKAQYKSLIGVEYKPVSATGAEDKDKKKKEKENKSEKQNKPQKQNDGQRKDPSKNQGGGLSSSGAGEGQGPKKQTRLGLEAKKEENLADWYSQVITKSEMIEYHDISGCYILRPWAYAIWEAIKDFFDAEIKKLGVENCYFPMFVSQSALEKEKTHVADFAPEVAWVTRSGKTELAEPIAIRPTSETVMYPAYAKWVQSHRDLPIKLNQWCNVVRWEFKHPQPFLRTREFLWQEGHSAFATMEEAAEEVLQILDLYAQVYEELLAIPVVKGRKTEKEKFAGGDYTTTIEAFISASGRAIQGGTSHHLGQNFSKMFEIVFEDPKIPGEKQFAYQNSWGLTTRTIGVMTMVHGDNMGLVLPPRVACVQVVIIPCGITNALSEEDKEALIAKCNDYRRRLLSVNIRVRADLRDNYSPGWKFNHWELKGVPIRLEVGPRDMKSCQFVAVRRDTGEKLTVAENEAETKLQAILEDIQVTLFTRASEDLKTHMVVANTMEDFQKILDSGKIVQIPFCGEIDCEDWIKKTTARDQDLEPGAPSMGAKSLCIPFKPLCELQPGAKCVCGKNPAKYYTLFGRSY
UniProt Q6IA86: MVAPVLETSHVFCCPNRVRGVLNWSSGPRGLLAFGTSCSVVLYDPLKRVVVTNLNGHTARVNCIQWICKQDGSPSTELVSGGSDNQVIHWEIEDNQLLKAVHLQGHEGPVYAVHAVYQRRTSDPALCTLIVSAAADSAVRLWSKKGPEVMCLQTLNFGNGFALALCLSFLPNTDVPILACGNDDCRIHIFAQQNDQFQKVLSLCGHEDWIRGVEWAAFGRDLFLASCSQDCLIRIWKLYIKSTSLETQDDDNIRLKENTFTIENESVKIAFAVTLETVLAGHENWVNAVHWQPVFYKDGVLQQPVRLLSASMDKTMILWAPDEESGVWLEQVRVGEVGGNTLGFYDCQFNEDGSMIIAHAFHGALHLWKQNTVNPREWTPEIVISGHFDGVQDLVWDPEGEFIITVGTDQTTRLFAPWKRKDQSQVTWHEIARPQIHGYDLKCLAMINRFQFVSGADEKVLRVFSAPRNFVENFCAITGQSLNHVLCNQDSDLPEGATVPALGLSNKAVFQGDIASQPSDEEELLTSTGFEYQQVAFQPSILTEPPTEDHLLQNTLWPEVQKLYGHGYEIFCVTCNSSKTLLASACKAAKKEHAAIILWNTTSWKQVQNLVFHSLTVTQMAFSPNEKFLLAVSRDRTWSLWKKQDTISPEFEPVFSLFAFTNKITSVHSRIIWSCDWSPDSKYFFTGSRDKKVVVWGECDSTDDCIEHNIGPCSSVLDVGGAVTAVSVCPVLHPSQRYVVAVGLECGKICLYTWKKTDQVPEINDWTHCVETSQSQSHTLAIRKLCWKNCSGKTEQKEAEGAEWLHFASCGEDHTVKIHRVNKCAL
UniProt Q9HC35: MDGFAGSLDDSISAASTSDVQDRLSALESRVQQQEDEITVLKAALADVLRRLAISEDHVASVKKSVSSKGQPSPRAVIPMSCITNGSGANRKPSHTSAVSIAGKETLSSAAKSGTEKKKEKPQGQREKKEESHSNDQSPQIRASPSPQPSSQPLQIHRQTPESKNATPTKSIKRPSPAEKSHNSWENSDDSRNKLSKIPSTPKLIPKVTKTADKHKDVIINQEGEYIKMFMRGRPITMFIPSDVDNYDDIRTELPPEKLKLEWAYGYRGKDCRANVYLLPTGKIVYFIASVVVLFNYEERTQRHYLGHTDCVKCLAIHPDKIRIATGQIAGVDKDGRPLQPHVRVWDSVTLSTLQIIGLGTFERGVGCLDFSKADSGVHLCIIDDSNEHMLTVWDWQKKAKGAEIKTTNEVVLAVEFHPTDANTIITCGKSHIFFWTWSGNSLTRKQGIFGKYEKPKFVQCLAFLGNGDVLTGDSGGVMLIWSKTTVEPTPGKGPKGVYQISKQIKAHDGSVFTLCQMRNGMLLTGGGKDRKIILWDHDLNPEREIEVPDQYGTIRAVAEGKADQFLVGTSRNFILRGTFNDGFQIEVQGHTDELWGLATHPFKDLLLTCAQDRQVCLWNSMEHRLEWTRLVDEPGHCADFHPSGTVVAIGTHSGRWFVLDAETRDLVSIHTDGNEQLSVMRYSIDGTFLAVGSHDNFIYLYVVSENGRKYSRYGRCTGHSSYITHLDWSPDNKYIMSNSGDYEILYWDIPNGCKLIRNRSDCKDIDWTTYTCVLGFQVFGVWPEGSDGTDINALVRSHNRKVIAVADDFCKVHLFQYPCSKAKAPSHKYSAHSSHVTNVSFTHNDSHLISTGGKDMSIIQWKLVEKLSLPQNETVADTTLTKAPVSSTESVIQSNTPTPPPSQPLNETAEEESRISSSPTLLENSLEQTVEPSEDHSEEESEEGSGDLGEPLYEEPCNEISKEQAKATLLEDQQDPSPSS
UniProt P42566: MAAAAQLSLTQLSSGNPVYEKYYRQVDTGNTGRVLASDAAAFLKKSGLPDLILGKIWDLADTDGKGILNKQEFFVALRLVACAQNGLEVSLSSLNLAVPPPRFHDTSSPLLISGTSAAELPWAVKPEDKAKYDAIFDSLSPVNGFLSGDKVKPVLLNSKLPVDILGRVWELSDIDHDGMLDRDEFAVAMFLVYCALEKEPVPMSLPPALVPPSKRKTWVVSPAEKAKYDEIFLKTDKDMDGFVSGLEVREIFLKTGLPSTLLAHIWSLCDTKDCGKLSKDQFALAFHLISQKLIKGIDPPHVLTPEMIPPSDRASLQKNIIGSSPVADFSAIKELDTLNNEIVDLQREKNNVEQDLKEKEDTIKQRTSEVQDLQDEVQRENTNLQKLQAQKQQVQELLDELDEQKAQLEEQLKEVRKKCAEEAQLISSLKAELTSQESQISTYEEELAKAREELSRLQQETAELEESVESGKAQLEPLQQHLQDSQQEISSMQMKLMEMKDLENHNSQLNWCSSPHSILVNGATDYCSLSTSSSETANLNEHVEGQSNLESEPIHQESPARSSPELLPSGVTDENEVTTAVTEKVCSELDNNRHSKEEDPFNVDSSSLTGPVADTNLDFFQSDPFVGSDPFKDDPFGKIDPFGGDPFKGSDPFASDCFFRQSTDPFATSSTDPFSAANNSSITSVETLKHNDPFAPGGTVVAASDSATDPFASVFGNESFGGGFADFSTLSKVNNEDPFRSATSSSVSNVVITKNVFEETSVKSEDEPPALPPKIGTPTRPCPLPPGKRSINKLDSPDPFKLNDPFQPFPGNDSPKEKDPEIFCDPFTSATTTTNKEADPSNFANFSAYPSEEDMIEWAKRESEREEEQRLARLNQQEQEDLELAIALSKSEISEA
UniProt O43402: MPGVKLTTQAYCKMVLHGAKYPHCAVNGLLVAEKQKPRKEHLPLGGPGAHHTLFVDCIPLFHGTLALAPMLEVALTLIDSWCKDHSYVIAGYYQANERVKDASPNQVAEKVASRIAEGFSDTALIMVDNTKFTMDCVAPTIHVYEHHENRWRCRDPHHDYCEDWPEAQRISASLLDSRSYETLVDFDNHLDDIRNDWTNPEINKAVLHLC
UniProt Q8N8Q3: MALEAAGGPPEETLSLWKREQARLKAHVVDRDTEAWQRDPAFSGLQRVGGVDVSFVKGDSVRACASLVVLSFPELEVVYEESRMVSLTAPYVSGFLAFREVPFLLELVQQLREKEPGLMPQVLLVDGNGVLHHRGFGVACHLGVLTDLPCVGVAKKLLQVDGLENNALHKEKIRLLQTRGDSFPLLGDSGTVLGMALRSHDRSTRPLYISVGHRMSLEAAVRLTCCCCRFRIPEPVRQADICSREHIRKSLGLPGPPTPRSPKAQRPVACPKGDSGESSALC
UniProt Q96EB1: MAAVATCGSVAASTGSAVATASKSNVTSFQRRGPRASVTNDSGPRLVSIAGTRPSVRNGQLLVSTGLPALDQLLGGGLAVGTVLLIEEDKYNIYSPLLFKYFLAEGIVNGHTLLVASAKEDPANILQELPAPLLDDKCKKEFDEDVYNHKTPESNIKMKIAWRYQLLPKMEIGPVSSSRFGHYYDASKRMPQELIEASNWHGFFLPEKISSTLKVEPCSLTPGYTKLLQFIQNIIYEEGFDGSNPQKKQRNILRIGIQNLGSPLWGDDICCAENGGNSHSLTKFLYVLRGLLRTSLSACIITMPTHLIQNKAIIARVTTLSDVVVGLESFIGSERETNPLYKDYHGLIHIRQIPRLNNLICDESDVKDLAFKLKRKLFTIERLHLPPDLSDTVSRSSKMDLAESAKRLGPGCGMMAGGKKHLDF
UniProt Q9UBQ5, whole entry, looked up: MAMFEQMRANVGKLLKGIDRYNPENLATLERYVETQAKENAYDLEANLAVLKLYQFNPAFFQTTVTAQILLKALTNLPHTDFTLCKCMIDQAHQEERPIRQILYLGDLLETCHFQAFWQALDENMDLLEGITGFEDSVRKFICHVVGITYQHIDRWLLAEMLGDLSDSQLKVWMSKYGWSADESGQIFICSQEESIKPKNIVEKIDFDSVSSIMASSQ

The other results are listed elsewhere or left out.
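Note: competitive chemoproteomic profiling in live THP-1 cells with an iodoacetamide desthiobiotin (IA-DTB) probe, comparing probe-labelled peptide intensities in compound-treated cells against DMSO-treated controls.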

Compound in this assay: CC1Cc2ccccc2N1C(=O)C1CCCN(C1)C(=O)CCl (mixture of isomers) [TRIM25 ligand 11 (diastereomer mixture)]
The experiment in a line: probe-labelled cysteine peptide fold change vs DMSO (competition) (log2 fold change); higher = less target engagement (more negative = stronger competition). The following applies: 50 µM; THP-1; incubation time: 4 h.
“ENG_P17813_549_TGTLSCTVALRPK (UniProt P17813)”: the “probe-labelled cysteine peptide fold change” value is -0.0345.
Under “EIF5_P55010_99+102_FVLCPECENPETDLHVNPK (UniProt P55010)” stands -0.0157; under “EIF4EBP1_Q13541_62_FLMECR (UniProt Q13541)”, 0.00825.
For “EPRS_P07814_92+105_LSSCDSFTSTINELNHCLSLR (UniProt P07814)” the value was 0.0577; for “EPRS_P07814_350_IDMSSNNGCMRDPTLYR (UniProt P07814)”, -0.16.
For “EIF4A2_Q14240_132_VILALGDYMGATCHACIGGTNVR (UniProt Q14240)”, the “probe-labelled cysteine peptide fold change” value was 0.0601.
As for “EIF5B_O60841_1092_HIAVFPCK (UniProt O60841)”, the “probe-labelled cysteine peptide fold change” value amounted to 0.0436.
For “EPRS_P07814_337_KGSQFGQSCCLR (UniProt P07814)” the value was -0.0797.
As to “EIF4A3_P38919_140_GLLALGDYMNVQCHACIGGTNVGEDIRK (UniProt P38919)”, the “probe-labelled cysteine peptide fold change” value was determined as 0.12.
For “ELP2_Q6IA86_13_VAPVLETSHVFCCPNR (UniProt Q6IA86)” the value was -0.113; for “ELMO1_Q92556_438_VGELPSETCNDFHPMFFTHDR (UniProt Q92556)”, 0.00269.
Take “EIF5_P55010_138_LCTFILK (UniProt P55010)”: the “probe-labelled cysteine peptide fold change” value was -0.195.
Under “ERAP1_Q9NZ08_193_MAFPCFDEPAFK (UniProt Q9NZ08)” stands -0.159; under “EMC2_Q15006_192_AAFCLEELMMTNPHNHLYCQQYAEVK (UniProt Q15006)”, 0.161; under “ELANE_P08246_254_SEDNPCPHPR (UniProt P08246)”, -0.0765.
For “EIF4G2_P78344_97_LCLELLNVGVESK (UniProt P78344)” the value was 0.0844; for “EIF3I_Q13347_120_QMGYQCFVSFFDLR (UniProt Q13347)”, 0.251.
Under “EML4_Q9HC35_82_AVIPMSCITNGSGANR (UniProt Q9HC35)” stands -0.304.
Take “ELP1_O95163_414_QTVVPPPMCTYQLLFPHPVNQVTFLAHPQK (UniProt O95163)”: the “probe-labelled cysteine peptide fold change” value was -0.0736.
For “EPRS_P07814_1301+1309_VACVQVVIIPCGITNALSEEDK (UniProt P07814)” the value was -0.139.
For “EPS15_P42566_269_TGLPSTLLAHIWSLCDTK (UniProt P42566)” the value was -0.101.
For the target “ELP1_O95163_23_DIQGPGNPQCFSLR (UniProt O95163)”, the “probe-labelled cysteine peptide fold change” value was determined as 0.0183.
Under “EMC8_O43402_153_CRDPHHDYCEDWPEAQR (UniProt O43402)” stands 0.192; under “EIPR1_Q53HC9_247_QYYLASCGDDCK (UniProt Q53HC9)”, -0.158.
For “EIF4ENIF1_Q9NRA8_767_SSCSTPLSQANR (UniProt Q9NRA8)” the value was -0.276; for “ENDOV_Q8N8Q3_140_GFGVACHLGVLTDLPCVGVAK (UniProt Q8N8Q3)”, 0.108.
For “ELP4_Q96EB1_412_LGPGCGMMAGGK (UniProt Q96EB1)” the value was -0.264.
For the target “ENG_P17813_582_LNIISPDLSGCTSK (UniProt P17813)”, the “probe-labelled cysteine peptide fold change” value was -0.124.
Under “EP300_Q09472_1272_MHQICVLHHEIIWPAGFVCDGCLK (UniProt Q09472)” stands 0.0262; under “ELP5_Q8TE02_52+61_SALCGEQVHILGCEVSEEEFREGFDSDINNR (UniProt Q8TE02)”, -0.191.
Under “EIF4A1_P60842_131_VVMALGDYMGASCHACIGGTNVR (UniProt P60842)” stands -0.0548; under “EIF3K_Q9UBQ5_87_CMIDQAHQEERPIR (UniProt Q9UBQ5)”, 0.0963.
Under “EIF3D_O15371_404_HCNGVDWR (UniProt O15371)” stands -0.0442.
As to “EIF4G1_Q04637_1516_YLCDEQK (UniProt Q04637)”, the “probe-labelled cysteine peptide fold change” value came out at 0.0855.
Under “EMC8_O43402_136_FTMDCVAPTIHVYEHHENR (UniProt O43402)” stands -0.0277.
Under “EPRS_P07814_336+337_KGSQFGQSCCLR (UniProt P07814)” stands -0.177; under “EML4_Q9HC35_617_QVCLWNSMEHR (UniProt Q9HC35)”, -0.099.
